Assay results: the supplement of paper PMC8090911
Structures can show the parent of a compound that is named as a salt. Some of the results follow. Many values rest on one well or one pass, so single values are uncertain.

system: p95-ErbB2-MCF7; assay: perinuclear lysosome accumulation (PNLA, size of LAMP2 puncta), robust Z-score vs plate median; higher = more perinuclear lysosome accumulation (reversal of invasive lysosome distribution); conditions: 5 µM; 24 h

Row | Compound | perinuclear lysosome accumulation
1 | COc1cc(N)c(Cl)cc1C(=O)NC1CCN(Cc2ccccc2)CC1 [Clebopride maleate] | 0.622
2 | Nc1nc(N)nc(-c2cc(Cl)ccc2Cl)n1 [Irsogladine Maleate] | 2.43
3 | CCN1CCCC1CNC(=O)c1cc(S(=O)(=O)CC)c(N)cc1OC (stereo not drawn) [Amisulpride] | -1.69
4 | CC[C@]12CCCN3CCc4c(n(c5ccccc45)[C@@](O)(C(=O)OC)C1)[C@@H]32 [Vincamine] | 0.759
5 | Nc1ccc(S(N)(=O)=O)cc1 [Sulfanilamide] | -0.51
6 | CC(CCc1ccc(O)cc1)NCCc1ccc(O)c(O)c1 (stereo not drawn) [Dobutamine hydrochloride] | -1.37
7 | CC1=C(C(=O)O)N2C(=O)[C@@H](NC(=O)[C@H](N)c3ccc(O)cc3)[C@H]2SC1 [Cefadroxil] | 0.504
8 | C=CCN1CCCC1CNC(=O)c1cc2nn[nH]c2cc1OC (stereo not drawn) [Alizapride HCl] | -3.43
9 | CC(C)(Oc1ccc(C2CC2(Cl)Cl)cc1)C(=O)O (stereo not drawn) [Ciprofibrate] | 1.07
10 | C=C(NC(=O)C(=C)NC(=O)c1csc(C2=N[C@@H]3c4csc(n4)[C@H]4NC(=O)c5csc(n5)[C@H]([C@](C)(O)[C@@H](C)O)NC(=O)[C@H]5CSC(=N5)/C(=C/C)NC(=O)[C@H]([C@@H](C)O)NC(=O)c5csc(n5)[C@]3(CC2)NC(=O)[C@H](C)NC(=O)C(=C)NC(=O)[C@H](C)NC(=O)[C@H]([C@@H](C)CC)N[C@@H]2C=Cc3c([C@H](C)O)cc(nc3[C@H]2O)C(=O)O[C@@H]4C)n1)C(N)=O [Thiostrepton] | 3.54
11 | CCC(C)(CN(C)C)OC(=O)c1ccccc1 (stereo not drawn) [Amyleine hydrochloride] | 0.576
12 | CC(=C(CCO)SSCC1CCCO1)N(C=O)Cc1cnc(C)nc1N (stereo in doubt) [Fursultiamine Hydrochloride] | -0.179
13 | NC(=O)c1cccnc1 [Nicotinamide] | 1.85
14 | Cn1c(=O)c2c(ncn2CC(O)CO)n(C)c1=O (stereo not drawn) [Diprophylline] | -1.24
15 | CNC1(C)C2CCC(C2)C1(C)C (stereo not drawn) [Mecamylamine hydrochloride] | -3.18
16 | Clc1ccccc1C(c1ccccc1)(c1ccccc1)n1ccnc1 [Clotrimazole] | -0.343
17 | Clc1ccc(COC(Cn2ccnc2)c2ccc(Cl)cc2Cl)cc1 (stereo not drawn) [Econazole nitrate] | 0.141
18 | C=CC[N@@+]12CC[C@@]34c5ccccc5N5/C=C6/[C@H]7C[C@H]8[C@@]9(CC[N@@+]8(CC=C)C/C7=C/CO)c7ccccc7N(/C=C(/[C@@H](C[C@@H]31)/C(=C\CO)C2)[C@H]54)[C@@H]69 [Alcuronium chloride] | 0.499
19 | CCCC(C(=O)OCCN(CC)CC)(c1ccccc1)c1ccccc1 [Proadifen hydrochloride] | 1.17
20 | CCN(CC)C(=O)N1CCN(C)CC1 [Diethylcarbamazine citrate] | 0.282
21 | CCN(CCCc1ccccc1)CCCc1ccccc1 [Alverine citrate salt] | -1.09
22 | CCSc1ccc2c(c1)N(CCCN1CCN(C)CC1)c1ccccc1S2 [Thiethylperazine malate] | 0.76
23 | CN(C)CCC(c1ccccc1)c1ccccn1 (stereo not drawn) [Pheniramine maleate] | 0.303
24 | CC(=O)OC(C)C[N+](C)(C)C (stereo not drawn) [Methacholine chloride] | 1.37

Row | Compound | perinuclear lysosome accumulation
25 | CCCCOc1ccc(CC(=O)NO)cc1 [Bufexamac] | -1.65
26 | C=CCc1ccccc1OCC(O)CNC(C)C (stereo not drawn) [Alprenolol hydrochloride] | 1.43
27 | NC[C@H]1CC[C@H](C(=O)O)CC1 [Tranexamic acid] | -3.85
28 | O=C(O)c1cc(=O)c2c(OCC(O)COc3cccc4oc(C(=O)O)cc(=O)c34)cccc2o1 [Cromolyn disodium salt] | -1.08
29 | O=C(Nc1ccccc1)OCC(CN1CCCCC1)OC(=O)Nc1ccccc1 (stereo not drawn) [Diperodon hydrochloride] | -0.352
30 | CN1[C@@H]2CC[C@H]1C[C@@H](OC(c1ccccc1)c1ccccc1)C2 [Benztropine mesylate] | 0.848
31 | CC(=O)Nc1ccc(OCC(O)CNC(C)C)cc1 (stereo not drawn) [Practolol] | -0.146
32 | CC(=O)OCC(=O)[C@@]12OC3(CCCC3)O[C@@H]1C[C@H]1[C@@H]3CCC4=CC(=O)C=C[C@]4(C)[C@@]3(F)[C@@H](O)C[C@@]12C [Amcinonide] | -0.136
33 | N=C(N=C(N)N)N1CCOCC1 [Moroxidine hydrochloride] | -1.42
34 | CNCC[C@@H](Oc1ccccc1C)c1ccccc1 [Tomoxetine hydrochloride] | 0.558
35 | O=C(CCCCC(=O)Nc1c(I)cc(I)c(C(=O)O)c1I)Nc1c(I)cc(I)c(C(=O)O)c1I [Iodipamide] | -0.793
36 | O=C(O)Cc1cc(I)c(Oc2ccc(O)c(I)c2)c(I)c1 [Tiratricol, 3,3',5-triiodothyroacetic acid] | -0.0627
37 | COCCCOc1ccnc(C[S+]([O-])c2nc3ccccc3[nH]2)c1C (stereo not drawn) [Rabeprazole] | 0.22
38 | CCCc1nc2c(C)cc(-c3nc4ccccc4n3C)cc2n1Cc1ccc(-c2ccccc2C(=O)O)cc1 [Telmisartan] | 0.907
39 | CCCCOC(=O)c1ccc(O)cc1 [Butylparaben] | 0.168
40 | N=C(N)N1CCc2ccccc2C1 [Debrisoquin sulfate] | -0.654
41 | CC(=O)/N=c1/sc(S(N)(=O)=O)nn1C [Methazolamide] | -0.853
42 | CCCCC1C(=O)N(c2ccccc2)N(c2ccccc2)C1=O [Phenylbutazone] | 0.233
43 | CC(=O)NC[C@H]1CN(c2ccc(N3CCOCC3)c(F)c2)C(=O)O1 [Linezolid] | -0.647
44 | O=C1C(O)=C(O)C(=O)C(O)=C1O [Tetrahydroxy-1,4-quinone monohydrate] | 1.52
45 | Cc1nccn1CC1CCc2c(c3ccccc3n2C)C1=O (stereo not drawn) [Ondansetron Hydrochloride] | 0.766
46 | COc1ccc2c(c1)c(CC(=O)OCC(=O)O)c(C)n2C(=O)c1ccc(Cl)cc1 [Acemetacin] | -0.192
47 | CCOCCn1c(N2CCCN(C)CC2)nc2ccccc21 [Emedastine] | -0.481
48 | CC1=C(C(=O)O)N2C(=O)[C@@H](NC(=O)[C@H](N)c3ccccc3)[C@H]2SC1 [Cephalexin monohydrate] | -0.43

Nine of the compounds above, tab-delimited.
Row	Compound	perinuclear lysosome accumulation
38	CCCc1nc2c(C)cc(-c3nc4ccccc4n3C)cc2n1Cc1ccc(-c2ccccc2C(=O)O)cc1 [Telmisartan]	0.907
39	CCCCOC(=O)c1ccc(O)cc1 [Butylparaben]	0.168
40	N=C(N)N1CCc2ccccc2C1 [Debrisoquin sulfate]	-0.654
41	CC(=O)/N=c1/sc(S(N)(=O)=O)nn1C [Methazolamide]	-0.853
42	CCCCC1C(=O)N(c2ccccc2)N(c2ccccc2)C1=O [Phenylbutazone]	0.233
43	CC(=O)NC[C@H]1CN(c2ccc(N3CCOCC3)c(F)c2)C(=O)O1 [Linezolid]	-0.647
44	O=C1C(O)=C(O)C(=O)C(O)=C1O [Tetrahydroxy-1,4-quinone monohydrate]	1.52
45	Cc1nccn1CC1CCc2c(c3ccccc3n2C)C1=O (stereo not drawn) [Ondansetron Hydrochloride]	0.766
46	COc1ccc2c(c1)c(CC(=O)OCC(=O)O)c(C)n2C(=O)c1ccc(Cl)cc1 [Acemetacin]	-0.192

Reformatted tab-delimited: entries from further up.
Row	Compound	perinuclear lysosome accumulation
45	Cc1nccn1CC1CCc2c(c3ccccc3n2C)C1=O (stereo not drawn) [Ondansetron Hydrochloride]	0.766
46	COc1ccc2c(c1)c(CC(=O)OCC(=O)O)c(C)n2C(=O)c1ccc(Cl)cc1 [Acemetacin]	-0.192
